Results taken from US20240390327A1, “THERAPEUTIC COMPOSITIONS AND METHODS” (Johns Hopkins University, priority 2021, published 2024).
For at least one compound, name, drawing or mass did not settle the structure.

Columns and labels:
[1] = system: rats with PCL syndrome (long COVID model); assay: 5-choice serial reaction time test (5CSRTT) in PCL model; format: in vivo, rat
[2] = system: rats with PCL syndrome (LPS plus Poly IC); assay: Nociception (mechanical allodynia, thermal hypersensitivity) in Post-COVID Like (PCL) model; format: in vivo, rat
Protocol: LPS (3 mg/kg ip) is given to prime the immune system of rats on postnatal (P) 45, 46 and P47. Subsequently, Poly IC (2, 3, or 5 mg/kg ip) is given on P55 to mimic a viral exposure. The response to these stimuli are studied in the following acute, subacute and chronic timepoints. Pain and activity in an open field are outcome measures we use routinely to track the development of the PCL syndrome.
For experimental design and development of pel syndrome with cognitive assessment, LPS (3 mg/kg ip) is given to prime the immune system of rats on postnatal (P) 45, 46 and P47. Subsequently, Poly IC (5 mg/kg ip) is given on P55 to mimic a viral exposure. The response to these stimuli are studied in the following acute, subacute and chronic timepoints. Pain and Activity in an Open Field are outcome measures we use routinely to track the development of the PCL syndrome. Similarly, Touchscreen cognitive assessment occurs simultaneously throughout the Acute, SubAcute and Chronic Phases. Using a touchscreen assessment platform, we first assess visual discrimination. We then assess cognitive flexibility through a test of reversal learning, and then a test of attention called 5 choice serial reaction (5CSRTT).
After priming the immune system with systemic lipopolysaccharide (LPS) on postnatal day 45-47, rats receive the viral mimetic poly(I:C) on P55.

## Cc1nc(C(=O)NCC(=O)O)c(O)c2ccc(Oc3ccccc3)cc12 [ROX]
[1]
  total number of sessions to pass the 15 sec and 5 sec intervals: is not significantly improve
[2]; PCL rats, chronic pain lasting greater than 2 months
  chronic thermal hypersensitivity: neither ROX nor MLT alone
[2]; PCL treatment cohorts, x 10 doses, with MLT 20 mg/kg/dose
  benefit of Roxadustat 15 mg/kg/dose versus 10 mg/kg/dose: 15 mg/kg/dose did not provide significant additional benefit over 10 mg/kg/dose
